Laboratory results as given in paper PMC8383118.
These are yes or no findings as the source states them, for the method shown. For some of these results: Binding calls can cover weak binding; strength is not graded here.

B1: Prx D12A (protein, UniProt Q4VUT1 1-60)
chain: MLTYDEFKQAIARGYITADTVMIVRKNGQIFDYVLPNEKIKNGEIVTDEKVEEVLVELSR
B2: PrxE6A (protein, UniProt Q4VUT1 1-60)
chain: MLTYDAFKQAIDRGYITADTVMIVRKNGQIFDYVLPNEKIKNGEIVTDEKVEEVLVELSR
B3: PrxD32A (protein, UniProt Q4VUT1 1-60)
chain: MLTYDEFKQAIDRGYITADTVMIVRKNGQIFAYVLPNEKIKNGEIVTDEKVEEVLVELSR
B4: PrxF31A (protein, UniProt Q4VUT1 1-60)
chain: MLTYDEFKQAIDRGYITADTVMIVRKNGQIADYVLPNEKIKNGEIVTDEKVEEVLVELSR

Columns and labels:
[1] = target: ComR S. mutans, full length (Streptococcus mutans); assay: SEC; proteins incubated on ice 15 min at 1:1.5 molar ratio ComR:Prx (higher ratio of DBD); Superdex 75; 20 mM Tris-HCl pH 7.5, 100 mM NaCl, 1 mM β-ME; fractions on SDS-PAGE; both purified
[2] = target: ComR S. mutans, full length (Streptococcus mutans); assay: ITC; 300 μM Prx (or PrxD32A) injected into 20 μM ComR S. mutans or DBD, 25 °C, gel filtration buffer (20 mM Tris-HCl pH 7.5, 100 mM NaCl, 1 mM β-ME); one site model; both purified

Binder | binding [1] | binding [2]
B1 | binds | –
B2 | no binding | –
B3 | – | no binding (tested: 300 μM PrxD32A injected into 20 μM ComR)
B4 | binds | –
